In PMC10769875:
Results are given in words; binding and its absence hold for the method and conditions named. Binding seen in cells or lysates may run through a third protein. Here binding means that the protein was enriched with, or labelled near, the bait; the list need not be complete.

Protein sequences, listed by entry. Tags and fused reporters are not part of them.
UniProt Q79NI3: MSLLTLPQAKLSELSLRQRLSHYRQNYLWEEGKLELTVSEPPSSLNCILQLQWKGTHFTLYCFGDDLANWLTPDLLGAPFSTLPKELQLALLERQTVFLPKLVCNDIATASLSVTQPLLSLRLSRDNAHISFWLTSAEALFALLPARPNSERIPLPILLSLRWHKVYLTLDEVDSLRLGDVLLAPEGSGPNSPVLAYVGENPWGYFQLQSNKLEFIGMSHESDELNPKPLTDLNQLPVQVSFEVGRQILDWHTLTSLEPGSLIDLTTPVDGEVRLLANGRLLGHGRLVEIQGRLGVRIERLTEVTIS

B1: Effector YopT (protein, UniProt P27475 1-322)
chain: MDSIHGHYHIQLSNYSAGENLQSATLTEGVIGAHRVKVETALSHSNRQKKLSATIKHNQSSRSMLDRKLTSDGKANQRSSFTFSMIMYRMIHFVLSTRVPAVRESVANYGGNINFKFAQTKGAFLHQIIKHSDTASGVCEALCAHWIWSHAQGQSLFDQLYVGGRKGKFQIDTLYSIKQLQIDGCKADVDQDEVTLDWFKKKGISERMIERHCLLRPVDVTGTTESEGPDQLLNAILDTHGIGYGYKKIYLSGQMSAHAIAAYVNEKSGVTFFDPNFGEFHFSDKEKFRKWFTNSFWENSMYHYPLGVGQRFSVLTFDSKEV
B2: Effector YopP (protein, UniProt Q93KQ5 1-288)
chain: MIGPISQINSPGGLSEKETSSLISNEELKNIITQLETDIADGSWFHKNYSRTDVKVMPALVTQANNKYPEMNLNFVTSPLDLSIEIKNVIENGVGSSRFIINMGEDGIHFSVIDYKHINGKTSLILFEPANFNSMGPAMLAIRAKTAIERYQLPDCHFSMVEMDIQRSSSECGIFSLALAKKLYTERDNLLKIHEDNIKGILSDGENPLPHDKLDPYLPVTFYKHTQGKKRLNEYLNTNPQGVGTVVNKKNETIFNRFDNNKSIIDGKELSVSVHKKRIAEYKTLLKV
B3: Effector/gatekeeper SctW/YopN (protein, UniProt P16945 1-293)
chain: MTTLHNLSYGNTPLRNEHPEIASSQIVNQTLGQFRGESVQIVSGTLQSIADMAEEVTFVFSERKELSLDKRKLSDSQARVSDVEEQVNQYLSKVPELKQKQNVSELLSLLSNSPNISLSQLKAYLEGKSEEPSEQFKMLCGLRDALKGRPELAHLLHLVEQALVSMVEEQEEAIVLGARITPEAYRESQSGVNPLQPLRDTYRDAVMGYQGINAIWSDLQKRFPNGDIDSVILFLQKALSADLQSQQSGSEREKLEIVISDLQKLKEFRSVSDQVKGFWQLFSEGITNGLRPF

Biological target: miniTurbo-SctQ (Y. enterocolitica) (UniProt Q79NI3)
Assay: proximity labelling

Row | Binder | binding
1 | B1 | binds
2 | B2 | binds
3 | B3 | binds
